Results deposited as PubChem BioAssay AID1259308 (NCATS, 2017).
Assay: 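Knock-downs that increase output of a recombinant reporter protein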 (primary screen). Cells: human HEK293 embryonic kidney cells stably expressing firefly luciferase (HEK-CMV-Luc2-Hygro). Reagent: single siRNA against human genes, 0.8 pmol siRNA per well. Timing: 72 h. Detection: 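Luciferase light (ONE-Glo) measured on one replicate plate set and viability (CellTiter-Glo) on the other, scaled to a negative control siRNA, with robust z-scores and luciferase per cell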. Scale: total luciferase, z-score and total luciferase, % of control: higher = more reporter protein produced; luciferase per cell, z-score: higher = more reporter output per viable cell. Call rule: 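An siRNA counts as active if its total luciferase robust z-score exceeds 3; genes with two or more such siRNAs out of three were retested with fresh siRNAs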. Calls: active = raised luciferase; inactive = no rise.
This is an unselected part of about 59,000 deposited reagents. About 1,510 of all reagents (2.6%) count as active. 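Calls use total luciferase alone and ignore viability, so some active siRNAs may act by altering cell number.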 Reagents against one gene are numbered here. Further read-outs or replicates are left out here.

| gene | siRNA no. | total luciferase, z-score | total luciferase, % of control | luciferase per cell, z-score | Outcome |
| --- | --- | --- | --- | --- | --- |
| SLC12A9 | 1 | -1.25 | 57.1 | -0.651 | inactive |
| SLC12A9 | 2 | 0.0052 | 82 | -0.755 | inactive |
| SLC12A9 | 3 | 0.733 | 96.5 | 1.4 | inactive |
| GNG12 | 1 | 1.33 | 108 | 1.48 | inactive |
| GNG12 | 2 | 0.677 | 95.4 | 0.191 | inactive |
| GNG12 | 3 | 0.919 | 100 | 0.0448 | inactive |
| WDR11 | 1 | -0.165 | 78.6 | -0.387 | inactive |
| WDR11 | 2 | -0.746 | 67 | -0.625 | inactive |
| WDR11 | 3 | 0.568 | 93.2 | 0.637 | inactive |
| SNRPD2P1 | 1 | 2.1 | 124 | 4.26 | inactive |
| SNRPD2P1 | 2 | 4.21 | 166 | 4.97 | active |
| SNRPD2P1 | 3 | 2.46 | 131 | 1.37 | inactive |
| NEFH | 1 | 2.06 | 123 | 1.74 | inactive |
| NEFH | 2 | 1.73 | 116 | 1.44 | inactive |
| NEFH | 3 | -0.768 | 66.6 | 0.327 | inactive |
| SPRY1 | 1 | 0.0182 | 82.2 | 0.408 | inactive |
| SPRY1 | 2 | -0.993 | 62.1 | -1.04 | inactive |
| SPRY1 | 3 | -0.323 | 75.5 | 0.119 | inactive |
| ARL4C | 1 | 2.18 | 125 | 1.46 | inactive |
| ARL4C | 2 | -1.69 | 48.3 | -1.9 | inactive |
| ARL4C | 3 | -0.101 | 79.9 | -0.417 | inactive |
| CEBPE | 1 | -0.502 | 71.9 | -0.665 | inactive |
| CEBPE | 2 | 0.355 | 89 | -0.137 | inactive |
| CEBPE | 3 | -0.369 | 74.5 | -0.0292 | inactive |
| FOXJ2 | 1 | 0.992 | 102 | 0.475 | inactive |
| FOXJ2 | 2 | 3.17 | 145 | 2.73 | active |
| FOXJ2 | 3 | -0.0387 | 81.1 | 0.146 | inactive |
| SIGLEC11 | 1 | -0.0243 | 81.4 | -0.249 | inactive |
| SIGLEC11 | 2 | 0.126 | 84.4 | -0.355 | inactive |
| SIGLEC11 | 3 | -1.89 | 44.3 | -2.04 | inactive |
| ARHGEF26 | 1 | -0.589 | 70.2 | -0.644 | inactive |
| ARHGEF26 | 2 | 0.916 | 100 | 0.804 | inactive |
| ARHGEF26 | 3 | -0.499 | 72 | -0.707 | inactive |
| TBCD | 1 | -1.3 | 55.9 | -0.384 | inactive |
| TBCD | 2 | -0.842 | 65.1 | 0.316 | inactive |
| TBCD | 3 | 1 | 102 | 1.15 | inactive |
| AEBP1 | 1 | -1.48 | 52.4 | -1.49 | inactive |
| AEBP1 | 2 | -1.91 | 44 | -1.54 | inactive |
| AEBP1 | 3 | 0.568 | 93.2 | -0.367 | inactive |

Targets above whose gene name begins with T or t (3):
| gene | siRNA no. | total luciferase, z-score | total luciferase, % of control | luciferase per cell, z-score | Outcome |
| --- | --- | --- | --- | --- | --- |
| TBCD | 1 | -1.3 | 55.9 | -0.384 | inactive |
| TBCD | 2 | -0.842 | 65.1 | 0.316 | inactive |
| TBCD | 3 | 1 | 102 | 1.15 | inactive |
